The assay has as its target recombinant empty α-carboxysome shell produced from the synthetic cso-2 operon (CsoS2, CsoS4A, CsoS4B, CsoS1C, CsoS1A, CsoS1B, CsoS1D) (Halothiobacillus neapolitanus) (UniProt O85041). The experiment in a line: co-sedimentation; proteins co-expressed in E. coli; 50,000 × g pellet of the lysate resuspended in TEMB buffer (5 mM Tris-HCl pH 8.0, 1 mM EDTA, 10 mM MgCl2, 20 mM NaHCO3), sucrose gradient (10-30% or 10-50% w/v), 105,000 × g for 30 min; fractions read by SDS-PAGE, immunoblot (anti-His, anti-CsoS1) and mass spectrometry. A general note: In western blotting, separated proteins are transferred to a membrane and probed.

The chains behind the UniProt entries cited, without tags or fusion partners. Where a name states a change or a piece, a line headed by the entry shows the natural chain unless it says otherwise.
UniProt O85041: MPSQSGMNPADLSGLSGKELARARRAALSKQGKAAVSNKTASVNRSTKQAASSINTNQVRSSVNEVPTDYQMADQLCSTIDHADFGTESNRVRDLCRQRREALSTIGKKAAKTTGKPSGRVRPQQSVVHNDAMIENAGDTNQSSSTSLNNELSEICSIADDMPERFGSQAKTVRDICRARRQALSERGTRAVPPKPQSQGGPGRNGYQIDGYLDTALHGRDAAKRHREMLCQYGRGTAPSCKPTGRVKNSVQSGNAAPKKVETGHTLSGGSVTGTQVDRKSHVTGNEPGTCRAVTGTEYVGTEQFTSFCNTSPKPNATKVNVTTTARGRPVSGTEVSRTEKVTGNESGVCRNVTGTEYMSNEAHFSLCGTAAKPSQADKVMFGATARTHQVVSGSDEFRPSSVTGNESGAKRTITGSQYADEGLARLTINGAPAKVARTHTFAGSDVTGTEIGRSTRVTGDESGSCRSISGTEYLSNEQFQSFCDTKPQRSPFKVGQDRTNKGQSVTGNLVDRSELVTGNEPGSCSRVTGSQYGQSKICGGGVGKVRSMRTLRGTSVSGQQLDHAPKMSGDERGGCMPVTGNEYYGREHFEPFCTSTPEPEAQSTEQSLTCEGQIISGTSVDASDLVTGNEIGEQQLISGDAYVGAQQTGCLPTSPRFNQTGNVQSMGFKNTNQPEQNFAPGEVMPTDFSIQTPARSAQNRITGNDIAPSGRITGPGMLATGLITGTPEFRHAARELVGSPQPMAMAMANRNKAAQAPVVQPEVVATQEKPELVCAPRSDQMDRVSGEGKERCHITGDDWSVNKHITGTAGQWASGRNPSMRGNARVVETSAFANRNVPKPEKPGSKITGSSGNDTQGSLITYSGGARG

No constants are given. Whether binding was seen depends on the method and setting. In cells and extracts the contact can be indirect. Some binding calls cover weakened binding; strength is not graded here.

B1: CsoSCA, β-carbonic anhydrase of the α-carboxysome, Halothiobacillus neapolitanus (enzyme, UniProt O85042 1-514)
chain: MNTRNTRSKQRAPFGVSSSVKPRLDLIEQAPNPAYDRHPACITLPERTCRHPLTDLEANEQLGRCEDSVKNRFDRVIPFLQVVAGIPLGLDYVTRVQELAQSSLGHTLPEELLKDNWISGHNLKGIFGYATAKALTAATEQFSRKIMSEKDDSASAIGFFLDCGFHAVDISPCADGRLKGLLPYILRLPLTAFTYRKAYAGSMFDIEDDLAQWEKNELRRYREGVPNTADQPTRYLKIAVYHFSTSDPTHSGCAAHGSNDRAALEAALTQLMKFREAVENAHCCGASIDILLIGVDTDTDAIRVHIPDSKGFLNPYRYVDNTVTYAQTLHLAPDEARVIIHEAILNANRSDGWAKGNGVASEGMRRFIGQLLINNLSQIDYVVNRHGGRYPPNDIGHAERYISVGDGFDEVQIRNLAYYAHLDTVEENAIDVDVGIKIFTKLNLSRGLPIPIAIHYRYDPNVPGSRERTVVKARRIYNAIKERFSSLDEQNLLQFRLSVQAQDIGSPIEEVASA
B1: the binding entry was “binds”.

The values are drawn from article PMC7595155.
